Drawing on PubChem BioAssay AID328 (DTP/NCI, 2004), this text covers T/C for 4 compounds.

The list does not hold the whole screen: its compounds were picked by chemical class. Other doses and runs of a compound may be missing. T/C is the treated group as % of the vehicle group. For survival time, the PubChem record calls one and a half times the control and up active, and a quarter to a half above the control has no call in these data; cut-offs in other NCI protocols can differ. Some entries show no survivor count and are marked so; the dose need not have been tolerated. Schedules are NCI's codes, read here as Q, the interval in days (D) or hours (H), X, the number of doses. Some doses were run more than once; the results are listed from low to high.

The assay deals with BDF1 mice, P388 leukemia ip, median survival T/C. The experiment in a line: NCI In Vivo Anticancer Drug Screen. Data for tumor model P388 Leukemia (intraperitoneal) in B6D2F1 (BDF1) mice. The following applies: T/C endpoint: median survival time, higher T/C = longer survival. An outline of the steps: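 Transplantable tumour in mice; compound vs vehicle dosing; survival scored; ratio of treated to control reported.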

Turning to `BrCCN(CCBr)c1ccc2c(c1)Cc1ccccc1-2`, the T/C reads like this: (dose: 0.59 mg/kg/injection, schedule: Q01DX009 (ip), vehicle: saline with Tween-80) 119 % of control [survivor count not shown]; (dose: 0.88 mg/kg/injection, schedule: Q01DX009 (ip), vehicle: saline with Tween-80) 169 % of control [survivor count not shown]; (dose: 1.33 mg/kg/injection, schedule: Q01DX009 (ip), vehicle: saline with Tween-80) 150 % of control [survivor count not shown]; (dose: 1.78 mg/kg/injection, schedule: Q01DX009 (ip), vehicle: saline with Tween-80) 154 % of control [survivor count not shown]; (dose: 2.0 mg/kg/injection, schedule: Q01DX009 (ip), vehicle: saline with Tween-80) 146 % of control [survivor count not shown]; (dose: 2.2 mg/kg/injection, schedule: Q01DX009 (ip), vehicle: saline with Tween-80) 164 % of control [survivor count not shown]. In addition, the T/C (dose: 2.66 mg/kg/injection, schedule: Q01DX009 (ip), vehicle: saline with Tween-80) is 194 % of control [survivor count not shown]; the T/C (dose: 3.3 mg/kg/injection, schedule: Q01DX009 (ip), vehicle: saline with Tween-80) is 207 % of control [survivor count not shown]; the T/C (dose: 4.0 mg/kg/injection, schedule: Q01DX009 (ip), vehicle: saline with Tween-80) is 187 % of control [survivor count not shown]; the T/C (dose: 5.0 mg/kg/injection, schedule: Q01DX009 (ip), vehicle: saline with Tween-80) was 191 % of control [survivor count not shown]; the T/C (dose: 5.33 mg/kg/injection, schedule: Q01DX009 (ip), vehicle: saline with Tween-80) is 196 % of control [survivor count not shown]; the T/C (dose: 6.0 mg/kg/injection, schedule: Q01DX009 (ip), vehicle: saline with Tween-80) was 208 % of control [survivor count not shown]. In addition, the T/C is 216 % of control [survivor count not shown] (dose: 7.5 mg/kg/injection, schedule: Q01DX009 (ip), vehicle: saline with Tween-80); 219 % of control [survivor count not shown] (dose: 8.0 mg/kg/injection, schedule: Q01DX009 (ip), vehicle: saline with Tween-80); 226 % of control [survivor count not shown] (dose: 12.0 mg/kg/injection, schedule: Q01DX009 (ip), vehicle: saline with Tween-80); 165 % of control [survivor count not shown] (dose: 16.5 mg/kg/injection, schedule: Q01DX009 (ip), vehicle: saline with Tween-80); 245 % of control [survivor count not shown] (dose: 18.0 mg/kg/injection, schedule: Q01DX009 (ip), vehicle: saline with Tween-80); 192 % of control [survivor count not shown] (dose: 25.0 mg/kg/injection, schedule: Q01DX009 (ip), vehicle: saline with Tween-80). In addition, the T/C reads like this: (dose: 37.5 mg/kg/injection, schedule: Q01DX009 (ip), vehicle: saline with Tween-80) 215 % of control [survivor count not shown]; (dose: 100.0 mg/kg/injection, schedule: Q04DX003 (ip), vehicle: Klucel (hydroxypropylcellulose) (HPC)) 140 % of control [survivor count not shown]; (dose: 200.0 mg/kg/injection, schedule: Q04DX003 (ip), vehicle: Klucel (hydroxypropylcellulose) (HPC)) 151 % of control [survivor count not shown]; (dose: 400.0 mg/kg/injection, schedule: Q04DX003 (ip), vehicle: Klucel (hydroxypropylcellulose) (HPC)) 196 % of control [survivor count not shown].
In the case of `O=S=NN(CCCl)CCCl`, the T/C is, setting by setting: (dose: 8.5 mg/kg/injection, schedule: Q04DX003 (ip), vehicle: saline) 100 % of control [survivor count not shown]; (dose: 10.0 mg/kg/injection, schedule: Q04DX003 (ip), vehicle: saline) 113 % of control [survivor count not shown]; (dose: 13.0 mg/kg/injection, schedule: Q04DX003 (ip), vehicle: saline) 136 % of control [survivor count not shown]; (dose: 20.0 mg/kg/injection, schedule: Q04DX003 (ip), vehicle: saline) 204 [survivor count not shown] and 218 % of control [survivor count not shown]; (dose: 30.0 mg/kg/injection, schedule: Q04DX003 (ip), vehicle: saline) 159 % of control [survivor count not shown]; (dose: 40.0 mg/kg/injection, schedule: Q04DX003 (ip), vehicle: saline) 95 % of control [survivor count not shown].
Take `CC1(C)NC(=O)N(CCN(CCCl)CCCl)C1=O`: the T/C (dose: 0.04 mg/kg/injection, schedule: Q01DX009 (ip), vehicle: Klucel (hydroxypropylcellulose) (HPC)) is 102 % of control [survivor count not shown]; the T/C (dose: 0.09 mg/kg/injection, schedule: Q01DX009 (ip), vehicle: Klucel (hydroxypropylcellulose) (HPC)) is 109 % of control [survivor count not shown]; the T/C (dose: 0.19 mg/kg/injection, schedule: Q01DX009 (ip), vehicle: Klucel (hydroxypropylcellulose) (HPC)) is 112 % of control [survivor count not shown]; the T/C (dose: 0.37 mg/kg/injection, schedule: Q01DX009 (ip), vehicle: Klucel (hydroxypropylcellulose) (HPC)) was 93 % of control [survivor count not shown]; the T/C (dose: 0.75 mg/kg/injection, schedule: Q01DX009 (ip), vehicle: Klucel (hydroxypropylcellulose) (HPC)) is 87 % of control [survivor count not shown]; the T/C (dose: 0.78 mg/kg/injection, schedule: Q01DX009 (ip), vehicle: Klucel (hydroxypropylcellulose) (HPC)) was 157 % of control [survivor count not shown]. Also, the T/C was 101 % of control [survivor count not shown] (dose: 1.5 mg/kg/injection, schedule: Q01DX009 (ip), vehicle: Klucel (hydroxypropylcellulose) (HPC)); 175 % of control [survivor count not shown] (dose: 1.56 mg/kg/injection, schedule: Q01DX009 (ip), vehicle: Klucel (hydroxypropylcellulose) (HPC)); 88 % of control [survivor count not shown] (dose: 3.0 mg/kg/injection, schedule: Q01DX009 (ip), vehicle: Klucel (hydroxypropylcellulose) (HPC)); 175 % of control [survivor count not shown] (dose: 3.12 mg/kg/injection, schedule: Q01DX009 (ip), vehicle: Klucel (hydroxypropylcellulose) (HPC)); 107 % of control [survivor count not shown] (dose: 6.0 mg/kg/injection, schedule: Q01DX009 (ip), vehicle: Klucel (hydroxypropylcellulose) (HPC)); 210 % of control [survivor count not shown] (dose: 6.25 mg/kg/injection, schedule: Q01DX009 (ip), vehicle: Klucel (hydroxypropylcellulose) (HPC)).
On to `CC(C(=O)O)N(CCCl)CCCl` (centres undefined), for which the T/C by setting is: (dose: 0.5 mg/kg/injection, schedule: Q01DX010 (ip), vehicle: saline) 180 [survivor count not shown] and 215 % of control [survivor count not shown]; (dose: 1.0 mg/kg/injection, schedule: Q01DX010 (ip), vehicle: saline) 195 [survivor count not shown] and 215 % of control [survivor count not shown]; (dose: 2.0 mg/kg/injection, schedule: Q01DX010 (ip), vehicle: saline) 230 [survivor count not shown] and 235 % of control [survivor count not shown]; (dose: 4.0 mg/kg/injection, schedule: Q01DX010 (ip), vehicle: saline) 230 [survivor count not shown] and 255 % of control [survivor count not shown].
